# Test results as given in the supplement of paper PMC8728848.
# This is one part of the list.
# B1: TAL6-4LysM (Trichoderma atroviride) (protein)
# chain: AADSIPSISPTGIITPTPTQSGMVSNCNKFYDVHSNDGCSAIASSQHVDLSSLYKWNPAIKTDCSGLQASVYVCIGILTTSMSTTSKLPTTTSKPSTTSKPPTGITTPTPTQSGMVKNCNKFYDVHSGDGCSAIASSQKVNLSSFYLWNPAVKTDCSGLQASVFVCIGTLTTSMSTTTSKLPTTTSKPSTTSKPPTGIITPTPTQNGMVKNCNKFYDVHSGDGCSAIASSQKVNLSSFYLWNPAVKTDCSGLQASVFVCVGTATTTTAAGITTPTPTQSGMVSGCNKFYDVHAGDGCSAIASSQKIALSSLYKWNPAVKTDCSGLQASVYICIGVGNAAAARVTGALEQKLISEEDLNSAVDHHHHHH
# Tests used:
# Assay in all cases: glycan array binding signal (z-score within array); higher = stronger binding
# Conditions in all cases: glycan notation: IUPAC condensed, linker removed
# [1] = biological target: Gal(a1-3)Gal(b1-3)GlcNAc
# Summary of the method: (§1)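 Columns mapping to the same glycan were averaged after glycan names were converted to IUPAC-condensed notation. The data come from 3228 arrays in the Consortium for Functional Glycomics database, limited to those with an available protein sequence. Binding is reported as a within-array Z-score averaged across arrays of one protein sequence and across linkers.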
# [2] = biological target: Gal(a1-3)Gal(b1-3)GlcNAc(b1-2)Man
# Summary of the method: as §1
# [3] = biological target: Gal(a1-3)Gal(b1-3)GlcNAc(b1-2)Man(a1-3)[Gal(a1-3)Gal(b1-3)GlcNAc(b1-2)Man(a1-6)]Man(b1-4)GlcNAc(b1-4)GlcNAc
# Summary of the method: as §1
# [4] = biological target: Gal(a1-3)Gal(b1-3)GlcNAc(b1-3)GalNAc
# Summary of the method: as §1
# [5] = biological target: Gal(a1-3)Gal(b1-3)GlcNAc(b1-6)GalNAc
# Summary of the method: as §1
# [6] = biological target: Gal(a1-3)Gal(b1-3)[Fuc(a1-4)]GlcNAc(b1-2)Man(a1-3)[Gal(a1-3)Gal(b1-3)[Fuc(a1-4)]GlcNAc(b1-2)Man(a1-6)]Man(b1-4)GlcNAc(b1-4)GlcNAc
# Summary of the method: as §1
# [7] = biological target: Gal(a1-3)Gal(b1-4)Glc
# Summary of the method: as §1
# [8] = biological target: Gal(a1-3)Gal(b1-4)GlcNAc
# Summary of the method: as §1
# [9] = biological target: Gal(a1-3)Gal(b1-4)GlcNAc(b1-2)Man
# Summary of the method: as §1
# [10] = biological target: Gal(a1-3)Gal(b1-4)GlcNAc(b1-2)Man(a1-3)[Gal(a1-3)Gal(b1-4)GlcNAc(b1-2)Man(a1-6)]Man(b1-4)GlcNAc(b1-4)GlcNAc
# Summary of the method: as §1
# [11] = biological target: Gal(a1-3)Gal(b1-4)GlcNAc(b1-3)GalNAc
# Summary of the method: as §1
# [12] = biological target: Gal(a1-3)Gal(b1-4)GlcNAc(b1-6)GalNAc
# Summary of the method: as §1
# [13] = biological target: Gal(a1-3)Gal(b1-4)[Fuc(a1-3)]GlcNAc
# Summary of the method: as §1
# [14] = biological target: Gal(a1-3)Gal(b1-4)[Fuc(a1-3)]GlcNAc(b1-2)Man(a1-3)[Gal(a1-3)Gal(b1-4)[Fuc(a1-3)]GlcNAc(b1-2)Man(a1-6)]Man(b1-4)GlcNAc(b1-4)GlcNAc
# Summary of the method: as §1
# [15] = biological target: Gal(a1-3)GalNAc
# Summary of the method: as §1
# [16] = biological target: Gal(a1-3)[Gal(a1-4)]Gal(b1-4)GlcNAc
# Summary of the method: as §1
# [17] = biological target: Gal(a1-4)Gal(b1-3)GlcNAc(b1-2)Man(a1-3)[Gal(a1-4)Gal(b1-3)GlcNAc(b1-2)Man(a1-6)]Man(b1-4)GlcNAc(b1-4)GlcNAc
# Summary of the method: as §1
# [18] = biological target: Gal(a1-4)Gal(b1-4)Glc
# Summary of the method: as §1
# [19] = biological target: Gal(a1-4)Gal(b1-4)GlcNAc
# Summary of the method: as §1
# [20] = biological target: Gal(a1-4)Gal(b1-4)GlcNAc(b1-2)Man(a1-3)[Gal(a1-4)Gal(b1-4)GlcNAc(b1-2)Man(a1-6)]Man(b1-4)GlcNAc(b1-4)GlcNAc
# Summary of the method: as §1
# [21] = biological target: Gal(a1-4)Gal(b1-4)GlcNAc(b1-3)Gal(b1-4)Glc
# Summary of the method: as §1
# [22] = biological target: Gal(a1-4)GlcNAc
# Summary of the method: as §1
# [23] = biological target: Gal(a1-6)Glc
# Summary of the method: as §1
# [24] = biological target: Gal(b1-2)Gal
# Summary of the method: as §1
# [25] = biological target: Gal(b1-3)Gal
# Summary of the method: as §1
# [26] = biological target: Gal(b1-3)Gal(b1-4)GlcNAc
# Summary of the method: as §1
# [27] = biological target: Gal(b1-3)GalNAc
# Summary of the method: as §1
# [28] = biological target: Gal(b1-3)GalNAc(a1-3)[Fuc(a1-2)]Gal(b1-4)Glc
# Summary of the method: as §1
# [29] = biological target: Gal(b1-3)GalNAc(a1-3)[Fuc(a1-2)]Gal(b1-4)GlcNAc
# Summary of the method: as §1
# [30] = biological target: Gal(b1-3)GalNAc(b1-3)Gal
# Summary of the method: as §1
# [31] = biological target: Gal(b1-3)GalNAc(b1-3)Gal(a1-4)Gal(b1-4)Glc
# Summary of the method: as §1
# [32] = biological target: Gal(b1-3)GalNAc(b1-4)Gal(b1-4)Glc
# Summary of the method: as §1
# [33] = biological target: Gal(b1-3)GalNAc(b1-4)[Neu5Ac(a2-3)]Gal(b1-4)Glc
# Summary of the method: as §1
# [34] = biological target: Gal(b1-3)GlcNAc
# Summary of the method: as §1
# [35] = biological target: Gal(b1-3)GlcNAc(a1-3)Gal(b1-4)GlcNAc
# Summary of the method: as §1
# [36] = biological target: Gal(b1-3)GlcNAc(a1-6)Gal(b1-4)GlcNAc
# Summary of the method: as §1
# [37] = biological target: Gal(b1-3)GlcNAc(b1-2)Man
# Summary of the method: as §1
# [38] = biological target: Gal(b1-3)GlcNAc(b1-2)Man(a1-3)[Gal(b1-3)GlcNAc(b1-2)Man(a1-6)]Man(b1-4)GlcNAc(b1-4)GlcNAc
# Summary of the method: as §1
binder,measurement,setting,value
B1,glycan array binding signal (z-score),[1],-1.73
same,glycan array binding signal (z-score),[2],-0.809
same,glycan array binding signal (z-score),[3],0.359
same,glycan array binding signal (z-score),[4],-1.04
same,glycan array binding signal (z-score),[5],0.369
same,glycan array binding signal (z-score),[6],0.387
same,glycan array binding signal (z-score),[7],-0.807
same,glycan array binding signal (z-score),[8],-0.344
same,glycan array binding signal (z-score),[9],-1.69
same,glycan array binding signal (z-score),[10],-0.267
same,glycan array binding signal (z-score),[11],0.346
same,glycan array binding signal (z-score),[12],-1.35
same,glycan array binding signal (z-score),[13],0.731
same,glycan array binding signal (z-score),[14],-1.56
same,glycan array binding signal (z-score),[15],-0.635
same,glycan array binding signal (z-score),[16],-0.657
same,glycan array binding signal (z-score),[17],-0.356
same,glycan array binding signal (z-score),[18],-0.552
same,glycan array binding signal (z-score),[19],0.197
same,glycan array binding signal (z-score),[20],0.171
same,glycan array binding signal (z-score),[21],-1.29
same,glycan array binding signal (z-score),[22],2.59
same,glycan array binding signal (z-score),[23],1.79
same,glycan array binding signal (z-score),[24],0.734
same,glycan array binding signal (z-score),[25],-0.511
same,glycan array binding signal (z-score),[26],2.92
same,glycan array binding signal (z-score),[27],-0.084
same,glycan array binding signal (z-score),[28],-0.473
same,glycan array binding signal (z-score),[29],-0.542
same,glycan array binding signal (z-score),[30],-1.26
same,glycan array binding signal (z-score),[31],-0.156
same,glycan array binding signal (z-score),[32],0.178
same,glycan array binding signal (z-score),[33],0.291
same,glycan array binding signal (z-score),[34],-0.679
same,glycan array binding signal (z-score),[35],-0.81
same,glycan array binding signal (z-score),[36],0.827
same,glycan array binding signal (z-score),[37],-0.521
same,glycan array binding signal (z-score),[38],-1.12

# An excerpt of these results, as tab-separated lines.
binder	measurement	setting	value
B1	glycan array binding signal (z-score)	[1]	-1.73
same	glycan array binding signal (z-score)	[4]	-1.04
same	glycan array binding signal (z-score)	[19]	0.197
same	glycan array binding signal (z-score)	[26]	2.92
same	glycan array binding signal (z-score)	[31]	-0.156
same	glycan array binding signal (z-score)	[32]	0.178
same	glycan array binding signal (z-score)	[38]	-1.12
